Laboratory results as given in PubChem BioAssay AID248 (DTP/NCI, 2004).
The list shows only some results of the screen, not a fair sample: it is rich in T/C values a quarter to a half above the control, in often repeated tests (any T/C) and in doses without a T/C. Other doses and runs of a compound stand elsewhere. T/C: endpoint of the treated group in % of that of the vehicle group. Some entries give survivors of the animals treated and no T/C: the source files T/C as zero there, which appears to mark a toxic dose or a test without result, not a measured value. Some survivor counts are full or nearly so, which does not show that the dose was tolerated: the source hardly ever lists a survival T/C far under the control, and the zero likely stands for such cases as well. Counts of survivors are from the toxicity check (mostly the fifth day) where no day follows; animals may have died later. Schedules are NCI's codes, read here as Q, the interval in days (D) or hours (H), X, the number of doses. Some entries hold several experiments; their values stand side by side, smallest first. Where survival is the endpoint, this PubChem deposit counts one and a half times the control or more as active, and values a quarter to a half above the control carry no call in these data; other NCI protocols may use other cut-offs. Some T/C values carry the count of animals alive at the toxicity check (mostly the fifth day); without a count, all were alive then. Signs of the kind (2×) stand for listed records that agree. Some schedules carry Z or #; the key to these is not given.

Test system: L1210 leukemia ip in BDF1 mice, survival T/C
Test: NCI In Vivo Anticancer Drug Screen. Data for tumor model L1210 Leukemia (intraperitoneal) in B6D2F1 (BDF1) mice
Conditions: T/C endpoint: mean survival time, higher T/C = longer survival
[1] = dose: 50.0 mg/kg/injection, schedule: Q01DX001 (ip), vehicle: saline
[2] = dose: 400.0 mg/kg/injection, schedule: Q01DX001 (ip), vehicle: saline
[3] = dose: 400.0 mg/kg/injection, schedule: Q01DX001 (ip), vehicle: acetone

`CCC(=O)OCC(=O)[C@]1(O)Cc2c(O)c3c(c(O)c2[C@@H](OC2CC(N)C(O)C(C)O2)C1)C(=O)c1c(OC)cccc1C3=O` (stereo not given in full) was tested, and the T/C (dose: 0.66 mg/kg/injection, schedule: Q04DX003 (ip), vehicle: saline) was 135 % of control, the T/C (dose: 1.0 mg/kg/injection, schedule: Q04DX003 (ip), vehicle: saline) was 126 % of control and the T/C (dose: 1.5 mg/kg/injection, schedule: Q04DX003 (ip), vehicle: saline) was 139 % of control.

`CSCOC1C(COC(c2ccccc2)(c2ccccc2)c2ccccc2)OC(OCc2ccccc2)C(NC(C)=O)C1OCc1ccccc1` (stereo not given) was tested, and the survivor count (dose: 200.0 mg/kg/injection, schedule: Q01DX001 (ip), vehicle: saline with Tween-80) was 3 of 3.

`NC(=S)N/N=C/c1ccc(C(F)(F)F)cn1` was tested, and the survivor count (dose: 44.0 mg/kg/injection, schedule: Q01DX001 (ip), vehicle: saline with Tween-80) was 6 of 10, the survivor count (dose: 66.0 mg/kg/injection, schedule: Q01DX001 (ip), vehicle: saline with Tween-80) was 5 of 10 and the survivor count (dose: 100.0 mg/kg/injection, schedule: Q01DX001 (ip), vehicle: saline with Tween-80) was 0 of 10. The survivor count (dose: 150.0 mg/kg/injection, schedule: Q01DX001 (ip), vehicle: saline with Tween-80) was 0 of 10 and the survivor count (dose: 225.0 mg/kg/injection, schedule: Q01DX001 (ip), vehicle: saline with Tween-80) was 0 of 10.

With `C1CN1P1(N2CC2)=NP(N2CC2)(N2CC2)=NP(N2CC2)(N2CC2)=NP(N2CC2)(N2CC2)=N1` the T/C (dose: 3.12 mg/kg/injection, schedule: Q01DX009 (ip), vehicle: saline) was 127 % of control, the T/C (dose: 6.25 mg/kg/injection, schedule: Q01DX009 (ip), vehicle: saline) was 138 % of control and the T/C (dose: 10.0 mg/kg/injection, schedule: Q04DX003 (ip), vehicle: saline) was 129 % of control. The T/C (dose: 12.5 mg/kg/injection, schedule: Q01DX009 (ip), vehicle: saline) was 128 % of control, the T/C (dose: 15.0 mg/kg/injection, schedule: Q04DX003 (ip), vehicle: saline) was 125 % of control and the T/C (dose: 20.0 mg/kg/injection, schedule: Q01DX001 (ip), vehicle: saline) was 134 % of control. The T/C (dose: 20.0 mg/kg/injection, schedule: Q04DX003 (ip), vehicle: saline) was 140 % of control, the survivor count (dose: 25.0 mg/kg/injection, schedule: Q01DX009 (ip), vehicle: saline) was 4 of 6 and the T/C (dose: 40.0 mg/kg/injection, schedule: Q04DX003 (ip), vehicle: saline) was 145 % of control. For the same compound, the survivor count (dose: 80.0 mg/kg/injection, schedule: Q01DX001 (ip), vehicle: saline) was 5 of 6, the survivor count (dose: 80.0 mg/kg/injection, schedule: Q04DX003 (ip), vehicle: saline) was 4 of 6 and the survivor count (dose: 160.0 mg/kg/injection, schedule: Q04DX003 (ip), vehicle: saline) was 5 of 6.

`N#Cc1cncc(-c2ccccc2)c1` was tested, and the survivor count (dose: 100.0 mg/kg/injection, schedule: Q04DX003 (ip), vehicle: Klucel (hydroxypropylcellulose) (HPC)) was 3 of 6, the survivor count (dose: 200.0 mg/kg/injection, schedule: Q04DX003 (ip), vehicle: Klucel (hydroxypropylcellulose) (HPC)) was 2 of 6 and the survivor count (dose: 400.0 mg/kg/injection, schedule: Q04DX003 (ip), vehicle: Klucel (hydroxypropylcellulose) (HPC)) was 3 of 6.

`COc1ccc(CC(N)C(=O)OC(C)C)cc1N(CCCl)CCCl` (stereo not given) was tested, and the survivor count (dose: 12.5 mg/kg/injection, schedule: Q01DX001 (ip), vehicle: saline) was 3 of 6, the survivor count (dose: 25.0 mg/kg/injection, schedule: Q01DX001 (ip), vehicle: saline) was 0 of 6 and the survivor count [1] was 0 of 6. The survivor count (dose: 100.0 mg/kg/injection, schedule: Q01DX001 (ip), vehicle: saline) was 0 of 6, the survivor count (dose: 200.0 mg/kg/injection, schedule: Q01DX001 (ip), vehicle: saline) was 0 of 6 and the survivor count [2] was 0 of 6.

For `CCOc1cc[n+](C)c2ccc(C)cc12`, the survivor count (dose: 25.0 mg/kg/injection, schedule: Q04DX002 (ip), vehicle: saline with Tween-80) was 0 of 3, the survivor count (dose: 50.0 mg/kg/injection, schedule: Q04DX002 (ip), vehicle: saline with Tween-80) was 0 of 3 and the survivor count (dose: 100.0 mg/kg/injection, schedule: Q04DX002 (ip), vehicle: saline with Tween-80) was 0 of 3.

`CCCCCCCCOP(=O)(N1CC1C)N1CC1C` (stereo not given) was tested, and the T/C (dose: 50.0 mg/kg/injection, schedule: Q01DX009 (ip), vehicle: acetone) was 148 % of control, the T/C (dose: 50.0 mg/kg/injection, schedule: Q01DX009 (ip), vehicle: saline) was 125 % of control and the T/C (dose: 75.0 mg/kg/injection, schedule: Q01DX009 (ip), vehicle: saline) was 136 % of control. The survivor count (dose: 100.0 mg/kg/injection, schedule: Q01DX009 (ip), vehicle: acetone) was 0 of 6, the survivor count (dose: 200.0 mg/kg/injection, schedule: Q01DX009 (ip), vehicle: acetone) was 0 of 6 and the survivor count [3] was 0 of 6.

`CCCCCCCCCCCCNCCCCCCCCCCCC` was tested, and the survivor count (dose: 18.0 mg/kg/injection, schedule: Q01DX009 (ip), vehicle: saline) was 3 of 6, the survivor count (dose: 25.0 mg/kg/injection, schedule: Q04DX003 (ip), vehicle: acetone) was 1 of 6 and the survivor count (dose: 28.0 mg/kg/injection, schedule: Q01DX009 (ip), vehicle: saline) was 1 of 6. The survivor count (dose: 40.0 mg/kg/injection, schedule: Q01DX009 (ip), vehicle: saline) was 0 of 6, the survivor count [1] was 0 of 6 and the survivor count (dose: 100.0 mg/kg/injection, schedule: Q01DX001 (ip), vehicle: acetone) was 2 of 6. For the same compound, the survivor count (dose: 200.0 mg/kg/injection, schedule: Q01DX001 (ip), vehicle: acetone) was 2 of 6 and the survivor count [3] was 1 of 6.

In the case of `OC1C(O)C(O)C2(CO2)C(O)C1O` (stereo not given), the T/C (dose: 300.0 mg/kg/injection, schedule: Q01DX Z (ip), vehicle: saline) is reported as 133 % of control.

In the case of `CCCCCCCCC(=O)N(CC(C)C)CC(C)C`, the survivor count (dose: 100.0 mg/kg/injection, schedule: Q01DX009 (ip), vehicle: carboxymethylcellulose (CMC)) is reported as 3 of 3 and the survivor count (dose: 400.0 mg/kg/injection, schedule: Q01DX009 (ip), vehicle: carboxymethylcellulose (CMC)) is reported as 4 of 6 and 3 of 3.

With `CCCCCCCCCCCCSC1CC(=O)N(c2ccccc2)C1=O` (stereo not given) the T/C (dose: 100.0 mg/kg/injection, schedule: Q01DX001 (ip), vehicle: other) was 86, 90, 94 (2×), 100 % of control, the T/C (dose: 200.0 mg/kg/injection, schedule: Q01DX001 (ip), vehicle: other) was 87, 93, 94, 96, 121 % of control and the T/C (dose: 400.0 mg/kg/injection, schedule: Q01DX001 (ip), vehicle: other) was 87, 91, 91 [2 of 3 alive], 98 % of control.

For `CC[P+]1(c2ccccc2)CCCc2ccc3ccccc3c21` (stereo not given), the survivor count (dose: 12.5 mg/kg/injection, schedule: Q01DX009 (ip), vehicle: saline with Tween-80) was 3 of 6, the survivor count (dose: 25.0 mg/kg/injection, schedule: Q01DX009 (ip), vehicle: saline with Tween-80) was 0 of 6 and the survivor count (dose: 100.0 mg/kg/injection, schedule: Q04DX003 (ip), vehicle: saline) was 0 of 6. The survivor count (dose: 200.0 mg/kg/injection, schedule: Q04DX003 (ip), vehicle: saline) was 0 of 6 and the survivor count (dose: 400.0 mg/kg/injection, schedule: Q04DX003 (ip), vehicle: saline) was 0 of 6.

In the case of `CC(=O)c1c(C)cc(C)nc1C`, the survivor count [2] is reported as 0 of 4.

In the case of `CCOC(=O)c1cnc(SC)nc1Nc1cccc(Cl)c1`, the survivor count (dose: 200.0 mg/kg/injection, schedule: Q01DX009 (ip), vehicle: Klucel (hydroxypropylcellulose) (HPC)) is reported as 6 of 6.
